Laboratory results published in patent publication US7790673.
These are yes or no findings as the source states them, for the method shown. For part of these data: Binding seen in cells or lysates may run through a third protein. Some results given as binding are weak or reduced against the parent protein; the word gives no strength.

By UniProt entry, the sequences of proteins in these tests, tags left out. Residues count along the entry.
GST-Aβ1-42 fusion protein (P05067, residues 672-713): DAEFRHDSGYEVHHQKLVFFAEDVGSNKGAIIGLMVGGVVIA
Aβ1-40 synthetic peptide (P05067, residues 672-711): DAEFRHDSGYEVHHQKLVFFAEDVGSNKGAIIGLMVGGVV

Legend:
[1] = target: Aβ1-40 synthetic peptide (UniProt P05067); assay: ELISA, Aβ1-40-coated wells, 3 hours at 37° C.
[2] = target: Aβ1-42 synthetic peptide (UniProt P05067); assay: ELISA, Aβ1-42-coated wells, 3 hours at 37° C.
[3] = target: Aβ1-40 synthetic peptide (UniProt P05067); assay: ELISA, Aβ1-40-coated wells, 0-37.5 nM cystatin C
[4] = target: Aβ1-42 synthetic peptide (UniProt P05067); assay: ELISA, Aβ1-42-coated wells, 0-37.5 nM cystatin C
[5] = target: GST-Aβ1-42 fusion protein (UniProt P05067); assay: GST pull-down from HEK293 culture media, immunoblot with anti-cystatin C antibody
[6] = target: GST-Aβ1-42 fusion protein (UniProt P05067); assay: GST pull-down of HEK293 media proteins on GST-Aβ1-42, immunoblot with anti-cystatin C antibody

Measured: binding

B1: urinary cystatin C (Calbiochem Biosciences) (protein, human, UniProt P01034 27-146, looked up)
chain: SSPGKPPRLVGGPMDASVEEEGVRRALDFAVGEYNKASNDMYHSRALQVVRARKQIVAGVNYFLDVELGRTTCTKTQPNLDNCPFHDQPHLKRKAFCSFQIYAVPWQGTMTLSKSTCQDA
binds: [1] | [2] | [3] | [4]

B2: wild type human cystatin C (protein, UniProt P01034 27-146, looked up)
chain: B1 chain
binds: [5] | [6]
